Reference: patent publication US20120129778A1
No constants are given. Whether binding was seen depends on the method and setting. Some entries that bind do so weakly or less than the wild type.

Molecular target: T1, mouse TGF-β receptor type II on mouse cells (RAW 264.7, MC3T3-E1) (mouse) (UniProt Q62312)
T1 sequence (looked up): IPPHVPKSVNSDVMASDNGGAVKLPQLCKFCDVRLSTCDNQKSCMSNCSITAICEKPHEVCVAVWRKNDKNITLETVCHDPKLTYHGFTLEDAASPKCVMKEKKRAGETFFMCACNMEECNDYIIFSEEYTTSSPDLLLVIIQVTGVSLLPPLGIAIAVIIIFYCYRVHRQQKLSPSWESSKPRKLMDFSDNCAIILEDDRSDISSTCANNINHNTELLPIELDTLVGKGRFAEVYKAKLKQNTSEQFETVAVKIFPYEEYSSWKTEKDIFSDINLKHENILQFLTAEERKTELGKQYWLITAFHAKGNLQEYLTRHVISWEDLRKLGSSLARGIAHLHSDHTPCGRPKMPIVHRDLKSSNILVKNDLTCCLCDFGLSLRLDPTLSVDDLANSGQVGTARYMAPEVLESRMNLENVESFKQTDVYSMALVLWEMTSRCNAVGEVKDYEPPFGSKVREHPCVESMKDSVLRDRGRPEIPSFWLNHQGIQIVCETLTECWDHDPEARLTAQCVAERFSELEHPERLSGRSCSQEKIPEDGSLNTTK
Test: inferred by the filing from mouse cell signalling assays (MC3T3-E1 luciferase, RAW 264.7 phospho-Smad)

B1: DOM23h-271-12 (protein)
VH: EVQLLESGGGLVQPGGSLRLSCTASGFTFTEYRMWWVRQAPGKGLEWVSLIEPIGNRTYYANSVRGRFTISRDNSKNTLYLQMNSLRAEDTAVYYCAKQIPGHMWTANPRSDYWGQGTQVTVSS
B1 was tested, and the binding was “binds”.
